The other results are listed elsewhere or left out.
Experiment: blockers of dexamethasone-driven GR-EGFP nuclear import – imaging, high-content imaging, GR-EGFP cells, confirmation (AID 463116)
Conditions: 3617.4 GR-EGFP nuclear translocation imaging, dexamethasone-induced; measured here: cell count per field; at 20 µM

Compound | z-score
O=[N+]([O-])c1cc([N+](=O)[O-])c(-n2nnc3ccccc32)c([N+](=O)[O-])c1 | 0.398
Cc1c2non([O-])c-2c(C)[n+](=O)[n+]1[O-] | -3.36
O=c1c2cc([N+](=O)[O-])ccc2[nH]c2c([N+](=O)[O-])cc([N+](=O)[O-])cc12 | 0.15

— PubChem BioAssay AID463116 (University of Pittsburgh Molecular Library Screening Center, 2010)
